Data reported in the supplement of paper PMC4962491.
Counter-ions that a name gives are not always drawn. ± gives the standard deviation of the averaged measurements. This is a selection; strong and weak results do not stand in their true shares. Most values lie within the scatter of the assay; repeated measurements hardly agree.

Tested on: FaDu
Experiment: mitochondrial oxygen consumption rate normalised to cell number, Z score over the library; higher = higher oxygen consumption (negative = OCR reduction)
Settings: treatment time 24 h, assay medium: 5 mM galactose, 5 mM pyruvate, 4 mM glutamine
Method: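 Primary screen: FaDu cells were incubated 24 h with Pharmakon 1600 / TDI oncology set compounds at 2 or 10 uM. Mitochondrial-specific OCR (basal minus 2 uM antimycin A) was measured on a Seahorse XF96 in assay medium with 5 mM galactose, 5 mM pyruvate and 4 mM glutamine, then corrected for Hoechst cell number and expressed as a Z score […]. Compounds that cut cell number by >66% were excluded. Two repeats.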

| SMILES | mitochondrial oxygen consumption rate normalised (2 µM) | mitochondrial oxygen consumption rate normalised (10 µM) |
| --- | --- | --- |
| CC1(C)[C@H]2CC[C@]1(CS(=O)(=O)O)C(=O)C2=Cc1ccc(C=C2C(=O)[C@@]3(CS(=O)(=O)O)CC[C@@H]2C3(C)C)cc1 | -0.188 ± 0.35 |  |
| CN1[C@@H](CC(=O)c2ccccc2)CCC[C@H]1C[C@H](O)c1ccccc1 | -0.343 ± 0.27 |  |
| c1ccc2[nH]c(-c3cscn3)nc2c1 | 0.179 ± 0.41 |  |
| COc1ccc(-c2cc(=O)c3c(O)cc(O[C@@H]4O[C@H](CO[C@@H]5O[C@@H](C)[C@H](O)[C@@H](O)[C@H]5O)[C@@H](O)[C@H](O)[C@H]4O)cc3o2)cc1O | 0.666 ± 1.7 |  |
| CC(C)(C)NC[C@H](O)c1ccc(O)c(CO)c1 | -0.23 ± 0.86 | 0.0168 ± 0.31 |
| CC(C)Nc1ncccn1 | 0.473 ± 0.042 |  |
| CCn1cc(C(=O)O)c(=O)c2cnc(N3CCCC3)nc21 | -1.08 ± 0.061 |  |
| O=S(=O)(O)CCS | 0.243 ± 0.3 |  |
| CCCCCCCCCCCCC[N+](C)(C)Cc1ccccc1 | -5.74 ± 0.24 |  |
| CCCS(=O)(=O)Nc1ccc(F)c(C(=O)c2c[nH]c3ncc(-c4ccc(Cl)cc4)cc23)c1F [Vemurafenib] | 0.352 ± 0.067 |  |
| CC(=O)[C@H]1CC[C@H]2[C@@H]3C[C@H](C)C4=CC(=O)CC[C@]4(C)[C@H]3[C@@H](O)C[C@]12C | 0.256 ± 0.52 |  |
| CCOC(=O)OC(C)OC1=C(C(=O)Nc2ccccn2)N(C)S(=O)(=O)c2ccccc21 (centres undefined) | 0.0627 ± 0.2 |  |
| O=C(O)c1cc(-c2ccc(F)cc2F)ccc1O | -0.927 ± 0.6 |  |
| CCCCNC(=O)NS(=O)(=O)c1ccc(C)cc1 | 0.00357 ± 0.17 |  |
| CCN1CC(CCN2CCOCC2)C(c2ccccc2)(c2ccccc2)C1=O (centres undefined) | 0.301 ± 0.46 |  |
| CC(=O)Nc1ccc(CC(=O)O)cc1 | 0.914 ± 0.6 |  |
| C[C@@H](CN1CC(=O)NC(=O)C1)N1CC(=O)NC(=O)C1 [Dexrazoxane HCl] | 1.32 ± 0.36 |  |
| CNCCC(Oc1ccc(C(F)(F)F)cc1)c1ccccc1 (centres undefined) | 0.814 ± 1 |  |
| Cc1nc2n(c(=O)c1CCN1CCC(c3noc4cc(F)ccc34)CC1)CCCC2 | -0.684 ± 0.56 |  |
| CC(=O)OCC(=O)[C@@]12N=C(C)O[C@@H]1C[C@H]1[C@@H]3CCC4=CC(=O)C=C[C@]4(C)[C@H]3[C@@H](O)C[C@@]12C | -0.0872 ± 0.072 |  |
| CCOCCOc1ccccc1C(N)=O | 0.421 ± 0.9 | 1.14 ± 0.52 |
| CCC1=C(C)CN(C(=O)NCCc2ccc(S(=O)(=O)NC(=O)N[C@H]3CC[C@H](C)CC3)cc2)C1=O | -0.461 ± 0.23 | 0.0168 ± 0.78 |
| CCCCOc1cc(C(=O)NCCN(CC)CC)c2ccccc2n1 | -0.109 ± 0.61 |  |
| CC[C@H]1OC(=O)[C@H](C)C(=O)[C@H](C)[C@@H](O[C@@H]2O[C@H](C)C[C@H](N(C)C)[C@H]2O)[C@](C)(OC)C[C@@H](C)C(=O)[C@H](C)[C@H]2N(CCCCn3cnc(-c4cccnc4)c3)C(=O)O[C@]12C | -0.211 ± 1.4 |  |
| CCS(=O)(=O)CCn1c([N+](=O)[O-])cnc1C | 0.524 ± 0.26 |  |

| SMILES | mitochondrial oxygen consumption rate normalised (2 µM) | mitochondrial oxygen consumption rate normalised (10 µM) |
| --- | --- | --- |
| O=C1CCc2cc(OCCCCc3nnnn3C3CCCCC3)ccc2N1 | -0.27 ± 0.57 |  |
| C[C@]12C=CC(=O)C=C1CC[C@@H]1[C@@H]2[C@@H](O)C[C@@]2(C)[C@H]1CC[C@]2(O)C(=O)COC(=O)CCC(=O)O | 0.573 ± 0.62 |  |
| COC(=O)[C@@H]1[C@H]2C[C@H]3c4[nH]c5ccccc5c4CCN3C[C@@H]2CC[C@@H]1O | 0.807 ± 0.13 |  |
| CCCCCCc1ccc(O)cc1O | -0.207 ± 0.67 |  |
| CC1(C)NC(=O)N(c2ccc([N+](=O)[O-])c(C(F)(F)F)c2)C1=O | -0.121 ± 0.49 |  |
| CC(=O)N[C@@H]([C@@H](O)[C@H](O)[C@H](O)CO)[C@@H](O)CC(=O)C(=O)O | 0.031 ± 1.1 |  |
| COC(=O)C(N)CS (centres undefined) | -0.712 ± 0.15 | 0.244 ± 0.32 |
| CC(N)C12CC3CC(CC(C3)C1)C2 (centres undefined) | 0.462 ± 0.27 |  |
| Nc1cc(-c2ccncc2)c[nH]c1=O | 0.123 ± 0.46 |  |
| C[C@H]1C[C@@H]2[C@H]([C@@H](O)C[C@@]3(C)[C@H]2CC[C@]3(O)C(=O)COC(=O)CCC(=O)O)[C@@]2(C)C=CC(=O)C=C12 | -0.0934 ± 0.12 |  |
| CN(CCOc1ccc(CC2SC(=O)NC2=O)cc1)c1ccccn1 (centres undefined) | -0.465 ± 0.65 |  |
| CN(C)CC[C@@H](c1ccc(Cl)cc1)c1ccccn1 | 0.017 ± 0.087 |  |
| OC(CCN1CCCCC1)(c1ccccc1)C1CCCCC1 (centres undefined) | 0.123 ± 0.33 |  |
| N=C(N)N/N=C/c1c(Cl)cccc1Cl | -0.0991 ± 0.16 |  |
| Cc1ccc2c(Cl)cc(Cl)c(O)c2n1 | -1.22 ± 0.57 |  |
| O=C(OCc1ccccc1)c1ccccc1 | 0.896 ± 0.32 |  |
| CN(C)CCOC(=O)COc1ccc(Cl)cc1 | -0.626 ± 0.76 |  |
| OC[C@H]1O[C@@H](O[C@@H]2[C@@H](CO)OC(O)(CO)[C@H]2O)[C@H](O)[C@@H](O)[C@H]1O (mixture of isomers) | -0.775 ± 0.29 | 1.09 ± 0.68 |
| COc1ccc(-c2cc(C(F)F)nn2-c2ccc(S(N)(=O)=O)cc2)cc1F | -0.215 ± 1 |  |
| N[C@@H](C(=O)N[C@@H]1C(=O)N2C(C(=O)O)=C(Cl)CS[C@H]12)c1ccccc1 | -0.098 ± 0.19 |  |
| COc1ccc(C(=O)NCc2ccc(OCCN(C)C)cc2)cc1OC | -0.0508 ± 1.3 |  |
| NC(N)=O | 0.147 ± 0.15 |  |
| Cn1c([N+](=O)[O-])cnc1COC(N)=O | 0.000861 ± 0.91 |  |
| CN(C)[C@@H]1C(O)=C(C(N)=O)C(=O)[C@@]2(O)C(O)=C3C(=O)c4c(O)ccc(Cl)c4[C@@H](O)[C@H]3C[C@@H]12 | 0.441 ± 1.1 |  |

A second format for two compounds above:
SMILES,mitochondrial oxygen consumption rate normalised (2 µM),mitochondrial oxygen consumption rate normalised (10 µM)
CC1(C)NC(=O)N(c2ccc([N+](=O)[O-])c(C(F)(F)F)c2)C1=O,-0.121 ± 0.49,
CC(=O)N[C@@H]([C@@H](O)[C@H](O)[C@H](O)CO)[C@@H](O)CC(=O)C(=O)O,0.031 ± 1.1,
